Assay results: PubChem BioAssay AID248 (DTP/NCI, 2004)
The list does not hold the whole screen: it is rich in T/C values a quarter to a half above the control, in often repeated tests (any T/C) and in doses without a T/C. Other doses and runs of a compound stand elsewhere. T/C is the treated group as % of the vehicle group. Some doses have a count of surviving animals in place of a T/C: the source holds a T/C of zero for them, seemingly a mark for toxic or unscored doses. Some survivor counts are full or nearly so, which does not show that the dose was tolerated: survival well below the control is almost never listed, so the zero probably covers shortened survival too. Survivors were counted at the toxicity check, usually on the fifth day, unless a day is given; later deaths do not show. Schedule codes are those of the source, read here as Q, the interval in days (D) or hours (H), X, the number of doses. Some schedules carry Z or #; the key to these is not given. Some structures stand for samples that the source files as different forms (salt, stereo form or complex); doses refer to the form tested. Some doses were run more than once; the results are listed from low to high. For survival time, the PubChem record calls one and a half times the control and up active, and a quarter to a half above the control has no call in these data; cut-offs in other NCI protocols can differ. Some T/C values are followed by the survivors on the day toxicity was checked, most often the fifth; where none is given, no animal had died by that day.

Test system: L1210 leukemia ip in BDF1 mice, survival T/C
Experiment: NCI In Vivo Anticancer Drug Screen. Data for tumor model L1210 Leukemia (intraperitoneal) in B6D2F1 (BDF1) mice
Conditions: T/C endpoint: mean survival time, higher T/C = longer survival
[1] = dose: 100.0 mg/kg/injection, schedule: Q04DX003 (ip), vehicle: Klucel (hydroxypropylcellulose) (HPC)
[2] = dose: 400.0 mg/kg/injection, schedule: Q04DX003 (ip), vehicle: Klucel (hydroxypropylcellulose) (HPC)
[3] = dose: 400.0 mg/kg/injection, schedule: Q04DX003 (ip), vehicle: saline
[4] = dose: 30.0 mg/kg/injection, schedule: Q01DX001 (ip), vehicle: saline
[5] = dose: 60.0 mg/kg/injection, schedule: Q01DX001 (ip), vehicle: saline
[6] = dose: 300.0 mg/kg/injection, schedule: Q01DX001 (ip), vehicle: saline
[7] = dose: 400.0 mg/kg/injection, schedule: Q04DX002 (ip), vehicle: saline
[8] = dose: 200.0 mg/kg/injection, schedule: Q04DX003 (ip), vehicle: Klucel (hydroxypropylcellulose) (HPC)
[9] = dose: 100.0 mg/kg/injection, schedule: Q01DX001 (ip), vehicle: saline
[10] = dose: 80.0 mg/kg/injection, schedule: Q01DX001 (ip), vehicle: saline
[11] = dose: 200.0 mg/kg/injection, schedule: Q01DX001 (ip), vehicle: saline
[12] = dose: 400.0 mg/kg/injection, schedule: Q01DX001 (ip), vehicle: saline
[13] = dose: 200.0 mg/kg/injection, schedule: Q04DX002 (ip), vehicle: Klucel (hydroxypropylcellulose) (HPC)
[14] = dose: 400.0 mg/kg/injection, schedule: Q01DX009 (ip), vehicle: Klucel (hydroxypropylcellulose) (HPC)

## CC(NC(=O)OCc1ccccc1)C(=O)Oc1cc(Cl)c(Cl)cc1Cl (stereo not drawn)
[1]
  survivor count: 6 of 6
[2]
  survivor count: 6 of 6
[3]
  survivor count: 6 of 6

## C[N+]1(C)C2C=CCC1CSC2 (stereo not drawn)
[4]
  survivor count: 3 of 6
[5]
  survivor count: 0 of 6
dose: 75.0 mg/kg/injection, schedule: Q01DX001 (ip), vehicle: saline
  survivor count: 0 of 6
dose: 150.0 mg/kg/injection, schedule: Q01DX001 (ip), vehicle: saline
  survivor count: 0 of 6
[6]
  survivor count: 0 of 6

## CCOc1cc(C)c2cccc(C)c2n1
dose: 400.0 mg/kg/injection, schedule: Q01DX001 (ip), vehicle: other
  survivor count: 4 of 4

## O=C(Nc1ccc(CC2=NCCCN2)cc1)c1ccc(C(=O)Nc2ccc(CC3=NCCCN3)cc2)cc1
dose: 2.0 mg/kg/injection, schedule: Q01DX Z (ip), vehicle: water
  survivor count: 3 of 6

## C[N+](C)(N)Cc1ccc(C[N+](C)(C)N)cc1
[7]
  survivor count: 1 of 3

## Cc1cc(C(=O)O)c(C)n1-c1ccccc1C(=O)O
[1]
  survivor count: 6 of 6
[8]
  survivor count: 6 of 6
[2]
  survivor count: 6 of 6

## CNC(Cc1ccc(OCc2ccccc2)cc1)C(=O)NC(CC(C)C)C(=O)OC (stereo not drawn)
dose: 200.0 mg/kg/injection, schedule: Q01DX009 (ip), vehicle: saline
  survivor count: 3 of 6
[3]
  survivor count: 3 of 6

## CCC1(O)C(=O)OCc2c1cc1n(c2=O)CCC1 (stereo not drawn)
[9]
  T/C: 125 % of control

## COc1ccc(OC)c(/C=C/[N+](=O)[O-])c1
dose: 200.0 mg/kg/injection, schedule: Q04DX003 (ip), vehicle: gum acacia
  survivor count: 3 of 6
dose: 400.0 mg/kg/injection, schedule: Q04DX003 (ip), vehicle: gum acacia
  survivor count: 1 of 6

## N#CC1(C#N)C(c2ccccc2)C1(C#N)C#N
dose: 100.0 mg/kg/injection, schedule: Q04DX003 (ip), vehicle: saline with Tween-80
  survivor count: 1 of 6
dose: 200.0 mg/kg/injection, schedule: Q04DX003 (ip), vehicle: saline with Tween-80
  survivor count: 0 of 6
dose: 400.0 mg/kg/injection, schedule: Q04DX003 (ip), vehicle: saline with Tween-80
  survivor count: 0 of 6

## O=C1C(Cl)=C(N/N=c2/[nH][nH]/c(=N/NC3=C(Cl)C(=O)c4ccccc4C3=O)c3ccccc23)C(=O)c2ccccc21
dose: 100.0 mg/kg/injection, schedule: Q01DX001 (ip), vehicle: carboxymethylcellulose (CMC)
  survivor count: 1 of 4 and 2 of 4
dose: 200.0 mg/kg/injection, schedule: Q01DX001 (ip), vehicle: carboxymethylcellulose (CMC)
  survivor count: 0 of 4
dose: 400.0 mg/kg/injection, schedule: Q01DX001 (ip), vehicle: carboxymethylcellulose (CMC)
  survivor count: 0 of 4

## CN(C)C(=O)Sc1cccnc1
dose: 400.0 mg/kg/injection, schedule: Q01DX009 (ip), vehicle: saline
  survivor count: 3 of 6

## c1ccc([As+](c2ccccc2)(c2ccccc2)c2ccccc2)cc1
dose: 1.25 mg/kg/injection, schedule: Q01DX Z (ip), vehicle: methylcellulose (MC)
  T/C: 131 % of control
dose: 2.5 mg/kg/injection, schedule: Q01DX Z (ip), vehicle: carboxymethylcellulose (CMC)
  T/C: 125 % of control
dose: 3.75 mg/kg/injection, schedule: Q01DX Z (ip), vehicle: carboxymethylcellulose (CMC)
  T/C: 127 % of control
dose: 5.0 mg/kg/injection, schedule: Q01DX Z (ip), vehicle: methylcellulose (MC)
  survivor count: 3 of 6
dose: 10.0 mg/kg/injection, schedule: Q01DX001 (ip), vehicle: carboxymethylcellulose (CMC)
  survivor count: 3 of 6
dose: 10.0 mg/kg/injection, schedule: Q01DX Z (ip), vehicle: methylcellulose (MC)
  survivor count: 3 of 6
dose: 20.0 mg/kg/injection, schedule: Q01DX001 (ip), vehicle: carboxymethylcellulose (CMC)
  survivor count: 5 of 6
dose: 20.0 mg/kg/injection, schedule: Q01DX001 (ip), vehicle: saline
  survivor count: 2 of 6
dose: 40.0 mg/kg/injection, schedule: Q01DX001 (ip), vehicle: carboxymethylcellulose (CMC)
  survivor count: 2 of 6
dose: 40.0 mg/kg/injection, schedule: Q01DX001 (ip), vehicle: saline
  survivor count: 3 of 6
[10]
  survivor count: 0 of 6

## COc1cc(CNC2CCCCC2)ccc1O
[6]
  survivor count: 0 of 6

## Nc1nc(N)c(C=Nc2ccc(I)cc2)c(Nc2ccc(I)cc2)n1
dose: 50.0 mg/kg/injection, schedule: Q01DX001 (ip), vehicle: alcohol
  survivor count: 4 of 4
dose: 100.0 mg/kg/injection, schedule: Q01DX001 (ip), vehicle: alcohol
  survivor count: 4 of 4
dose: 200.0 mg/kg/injection, schedule: Q01DX001 (ip), vehicle: alcohol
  survivor count: 4 of 4

## COC(=O)C1=C(O)CN(C)C1=O
[11]
  survivor count: 4 of 6
dose: 225.0 mg/kg/injection, schedule: Q01DX009 (ip), vehicle: saline
  survivor count: 0 of 6
[12]
  survivor count: 0 of 6

## Cc1ccc2c(ccc3c[n+]4c5ccccc5ccc4n32)c1
[10]
  survivor count: 0 of 6
[9]
  survivor count: 0 of 6
[11]
  survivor count: 0 of 6
[12]
  survivor count: 0 of 6

## CC1(C)C(=O)NC2(O)CCCC21 (stereo not drawn)
[4]
  survivor count: 0 of 6
[5]
  survivor count: 0 of 6
dose: 75.0 mg/kg/injection, schedule: Q01DX001 (sc), vehicle: saline
  survivor count: 0 of 6
dose: 150.0 mg/kg/injection, schedule: Q01DX001 (sc), vehicle: saline
  survivor count: 0 of 6
dose: 300.0 mg/kg/injection, schedule: Q01DX001 (sc), vehicle: saline
  survivor count: 0 of 6

## O=C1c2cccc(Cl)c2C(=O)c2c(Cl)cccc21
[13]
  survivor count: 3 of 3

## CCCCCCCCCCCCCOc1ccc(Sc2ccc([N+](=O)[O-])cc2)cc1
[1]
  survivor count: 6 of 6
[8]
  survivor count: 6 of 6

## CC(C)n1cnc2c(=S)nc[nH]c21
dose: 29.0 mg/kg/injection, schedule: Q01DX Z (oral), vehicle: carboxymethylcellulose (CMC)
  T/C: 128 % of control
dose: 315.0 mg/kg/injection, schedule: Q01DX Z (ip), vehicle: carboxymethylcellulose (CMC)
  survivor count: 4 of 6

## CCCC=C(CCCC)CCCC
dose: 400.0 mg/kg/injection, schedule: Q04DX002 (ip), vehicle: saline with Tween-80
  survivor count: 1 of 3

## COC1OC(CCl)C(Cl)C(OS(=O)(=O)c2ccc(C)cc2)C1OS(=O)(=O)c1ccc(C)cc1 (stereo not drawn)
[13]
  survivor count: 3 of 3

## CCOC(OCC)c1nc(N)c2cnn(C)c2n1
dose: 100.0 mg/kg/injection, schedule: Q01DX009 (ip), vehicle: saline
  survivor count: 5 of 6
dose: 200.0 mg/kg/injection, schedule: Q04DX002 (ip), vehicle: saline
  survivor count: 1 of 3
[7]
  survivor count: 0 of 3

## Cc1cc(C)c(B2OB(c3c(C)cc(C)cc3C)O2)c(C)c1
[14]
  survivor count: 0 of 6

## C=CC[n+]1ccccc1Cc1ccccc1
dose: 50.0 mg/kg/injection, schedule: Q04DX003 (ip), vehicle: saline
  survivor count: 6 of 6
dose: 100.0 mg/kg/injection, schedule: Q01DX001 (ip), vehicle: saline with Tween-80
  survivor count: 0 of 3
dose: 100.0 mg/kg/injection, schedule: Q04DX003 (ip), vehicle: saline
  survivor count: 0 of 1
dose: 200.0 mg/kg/injection, schedule: Q01DX001 (ip), vehicle: saline with Tween-80
  survivor count: 0 of 3
dose: 200.0 mg/kg/injection, schedule: Q04DX003 (ip), vehicle: saline
  survivor count: 0 of 6
dose: 400.0 mg/kg/injection, schedule: Q01DX001 (ip), vehicle: saline with Tween-80
  survivor count: 0 of 3
[3]
  survivor count: 0 of 6

## CCc1cc(C)cc(OC(=O)Nc2cccc(Cl)c2)c1
dose: 400.0 mg/kg/injection, schedule: Q01DX009 (ip), vehicle: saline with Tween-80
  survivor count: 6 of 6

## COc1ccc(OC)c2c1CCCC2
[14]
  T/C: 125 % of control [4 of 6 alive]
